Test: Permeability of compound at pH 7.4 by PAMPA assay

Structure (SMILES): COc1cc2c(cc1OC)C(=O)C(CC1CCN(Cc3ccccc3)CC1)C2 (stereo unspecified) [DONEPEZIL]
- Papp: 21 ×10⁻⁶ cm/s
